Consider three substances from article PMC9927933.

Amino acid sequences for entries named in this document (tags omitted). A change or cut given only in a name is not applied to a line headed by its entry.
UniProt Q9UM11: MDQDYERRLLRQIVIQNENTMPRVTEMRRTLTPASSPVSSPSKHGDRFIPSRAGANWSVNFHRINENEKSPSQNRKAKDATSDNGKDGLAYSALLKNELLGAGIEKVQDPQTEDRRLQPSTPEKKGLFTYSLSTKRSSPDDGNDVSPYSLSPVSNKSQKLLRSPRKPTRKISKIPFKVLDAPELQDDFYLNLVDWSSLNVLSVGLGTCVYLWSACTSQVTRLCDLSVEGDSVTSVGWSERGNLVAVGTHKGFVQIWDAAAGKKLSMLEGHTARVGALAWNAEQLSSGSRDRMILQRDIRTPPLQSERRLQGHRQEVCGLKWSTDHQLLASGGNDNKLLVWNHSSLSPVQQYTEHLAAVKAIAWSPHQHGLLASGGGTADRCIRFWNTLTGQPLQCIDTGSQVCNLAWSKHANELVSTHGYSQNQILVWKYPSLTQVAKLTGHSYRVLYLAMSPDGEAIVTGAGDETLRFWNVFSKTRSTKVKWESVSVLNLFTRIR
UniProt Q8TB45: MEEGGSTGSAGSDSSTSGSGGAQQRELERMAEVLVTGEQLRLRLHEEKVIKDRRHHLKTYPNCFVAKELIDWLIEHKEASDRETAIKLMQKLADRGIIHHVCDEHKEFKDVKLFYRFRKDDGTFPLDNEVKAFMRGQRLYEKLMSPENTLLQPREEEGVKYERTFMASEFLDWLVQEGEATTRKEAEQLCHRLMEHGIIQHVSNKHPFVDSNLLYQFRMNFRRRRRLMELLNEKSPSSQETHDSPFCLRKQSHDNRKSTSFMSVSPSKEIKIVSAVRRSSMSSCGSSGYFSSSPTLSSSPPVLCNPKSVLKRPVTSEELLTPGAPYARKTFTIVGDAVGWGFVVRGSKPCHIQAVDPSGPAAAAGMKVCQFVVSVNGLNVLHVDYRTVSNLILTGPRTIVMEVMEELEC

No constants are given. Whether binding was seen depends on the method and setting. Binding seen in cells or lysates may run through a third protein. A result given as binding can be weak or reduced; the word gives no strength.

This assay addresses CDH1 (UniProt Q9UM11). The experiment in a line: co-IP; HEK293 cells transfected with indicated plasmids, pulled down with anti-FLAG beads, immunoblot (Figure 5E); IP lysis buffer 50 mM Tris-HCl pH 8.0, 120 mM NaCl, 1% Triton X-100, 1 mM EDTA, overnight at 4°C.

Regarding “DEPTOR MT3 (AXXA double mutant of D-box D3) (from UniProt Q8TB45)”, the binding entry is reported as “no binding”.
Take “DEPTOR MT2 (AXXA double mutant of D-box D2) (from UniProt Q8TB45)”: the binding result is recorded as “binds”.
As to “DEPTOR MT1 (AXXA double mutant of D-box D1) (from UniProt Q8TB45)”, the binding result is given as “binds”.
